Data from PubChem BioAssay AID624426 (Broad Institute, 2012).
Values joined by “and” are separate entries in the source; they are usually repeats but may differ in a detail not shown here. Identical values can stand only once. The list shows a part of the results. Measured potencies and affinities stand elsewhere. Where no call is shown, the source marks the result inconclusive.

Test: MITF pathway: TRPM1-promoter luciferase in SK-MEL-5 melanoma cells, inhibitor mode, 384-well luminescence, primary dose-response screen (AID 624426)
Conditions: SK-MEL-5 TRPM1-promoter luciferase, 24 h; at 35 µM (top of the series)

O=C1C=C(Nc2ccccc2)C(=O)c2ccccc21
activity change, negative = inhibition: -110% and -79.8%
